The record followed here is the supplement of paper PMC10849652.

The chains behind the UniProt entries cited, without tags or fusion partners. Where a name states a change or a piece, a line headed by the entry shows the natural chain unless it says otherwise.
UniProt O15525: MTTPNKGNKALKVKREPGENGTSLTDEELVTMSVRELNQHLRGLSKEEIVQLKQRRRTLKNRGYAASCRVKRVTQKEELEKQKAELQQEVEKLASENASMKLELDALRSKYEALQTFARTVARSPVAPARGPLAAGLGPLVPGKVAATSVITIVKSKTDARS
UniProt Q9Y5V3: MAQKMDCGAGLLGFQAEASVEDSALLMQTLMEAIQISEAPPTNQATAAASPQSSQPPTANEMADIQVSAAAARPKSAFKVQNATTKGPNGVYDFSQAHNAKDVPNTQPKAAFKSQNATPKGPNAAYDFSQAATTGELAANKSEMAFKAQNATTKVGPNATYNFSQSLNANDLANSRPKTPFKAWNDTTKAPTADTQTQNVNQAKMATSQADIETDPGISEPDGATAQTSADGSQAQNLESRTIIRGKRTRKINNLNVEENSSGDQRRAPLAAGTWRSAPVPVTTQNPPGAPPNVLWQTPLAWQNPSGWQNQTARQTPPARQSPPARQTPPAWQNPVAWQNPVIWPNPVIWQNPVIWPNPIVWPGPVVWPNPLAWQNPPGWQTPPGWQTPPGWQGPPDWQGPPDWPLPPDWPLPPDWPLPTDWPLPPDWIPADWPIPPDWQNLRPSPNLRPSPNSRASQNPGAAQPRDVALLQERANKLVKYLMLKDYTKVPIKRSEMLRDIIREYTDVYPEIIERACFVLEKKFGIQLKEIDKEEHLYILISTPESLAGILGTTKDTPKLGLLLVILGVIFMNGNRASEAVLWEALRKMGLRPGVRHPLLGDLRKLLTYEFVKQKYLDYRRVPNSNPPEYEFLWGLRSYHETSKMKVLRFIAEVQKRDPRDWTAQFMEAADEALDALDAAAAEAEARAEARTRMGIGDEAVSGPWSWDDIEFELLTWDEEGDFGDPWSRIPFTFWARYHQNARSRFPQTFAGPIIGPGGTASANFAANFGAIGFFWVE
UniProt Q9NQ48: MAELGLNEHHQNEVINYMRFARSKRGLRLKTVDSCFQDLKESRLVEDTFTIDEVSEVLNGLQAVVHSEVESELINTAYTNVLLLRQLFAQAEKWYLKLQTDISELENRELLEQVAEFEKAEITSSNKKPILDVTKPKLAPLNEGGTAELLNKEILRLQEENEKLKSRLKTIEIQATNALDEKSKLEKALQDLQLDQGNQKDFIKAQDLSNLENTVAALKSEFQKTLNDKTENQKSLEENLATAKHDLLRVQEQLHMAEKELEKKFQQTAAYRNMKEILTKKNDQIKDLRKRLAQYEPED
UniProt O95232: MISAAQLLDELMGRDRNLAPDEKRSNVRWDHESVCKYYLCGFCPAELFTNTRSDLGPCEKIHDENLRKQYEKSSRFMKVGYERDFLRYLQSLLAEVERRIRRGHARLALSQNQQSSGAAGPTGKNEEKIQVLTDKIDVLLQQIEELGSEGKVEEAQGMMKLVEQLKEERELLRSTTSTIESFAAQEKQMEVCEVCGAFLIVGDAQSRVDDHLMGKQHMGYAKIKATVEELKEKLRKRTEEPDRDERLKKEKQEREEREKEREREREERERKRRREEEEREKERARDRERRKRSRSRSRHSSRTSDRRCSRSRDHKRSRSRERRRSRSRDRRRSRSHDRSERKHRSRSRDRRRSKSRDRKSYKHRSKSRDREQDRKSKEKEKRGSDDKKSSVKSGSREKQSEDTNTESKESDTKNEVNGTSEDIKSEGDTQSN
UniProt Q8IVH8: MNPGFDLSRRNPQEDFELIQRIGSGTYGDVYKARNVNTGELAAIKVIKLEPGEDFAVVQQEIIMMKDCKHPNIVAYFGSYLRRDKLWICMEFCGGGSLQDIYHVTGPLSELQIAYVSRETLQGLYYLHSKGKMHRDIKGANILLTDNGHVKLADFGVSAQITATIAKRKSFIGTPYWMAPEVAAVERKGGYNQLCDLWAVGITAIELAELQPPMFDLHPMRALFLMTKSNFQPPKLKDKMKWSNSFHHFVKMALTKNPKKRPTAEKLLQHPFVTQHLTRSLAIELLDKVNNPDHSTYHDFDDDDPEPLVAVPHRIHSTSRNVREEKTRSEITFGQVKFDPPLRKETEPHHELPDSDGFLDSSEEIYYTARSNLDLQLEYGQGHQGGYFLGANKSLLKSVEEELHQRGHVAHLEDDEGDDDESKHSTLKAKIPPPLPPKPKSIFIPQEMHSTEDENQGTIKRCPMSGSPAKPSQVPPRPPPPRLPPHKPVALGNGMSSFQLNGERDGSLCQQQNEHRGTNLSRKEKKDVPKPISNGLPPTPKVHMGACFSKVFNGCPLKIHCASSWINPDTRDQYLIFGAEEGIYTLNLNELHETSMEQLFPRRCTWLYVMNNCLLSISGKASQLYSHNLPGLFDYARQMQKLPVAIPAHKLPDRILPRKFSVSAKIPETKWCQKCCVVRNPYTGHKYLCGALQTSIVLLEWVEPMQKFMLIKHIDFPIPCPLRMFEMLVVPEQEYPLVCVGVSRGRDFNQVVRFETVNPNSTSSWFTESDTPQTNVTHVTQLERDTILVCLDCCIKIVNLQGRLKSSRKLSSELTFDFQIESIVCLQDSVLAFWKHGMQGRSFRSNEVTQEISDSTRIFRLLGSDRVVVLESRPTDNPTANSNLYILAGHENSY
UniProt Q5SRI9: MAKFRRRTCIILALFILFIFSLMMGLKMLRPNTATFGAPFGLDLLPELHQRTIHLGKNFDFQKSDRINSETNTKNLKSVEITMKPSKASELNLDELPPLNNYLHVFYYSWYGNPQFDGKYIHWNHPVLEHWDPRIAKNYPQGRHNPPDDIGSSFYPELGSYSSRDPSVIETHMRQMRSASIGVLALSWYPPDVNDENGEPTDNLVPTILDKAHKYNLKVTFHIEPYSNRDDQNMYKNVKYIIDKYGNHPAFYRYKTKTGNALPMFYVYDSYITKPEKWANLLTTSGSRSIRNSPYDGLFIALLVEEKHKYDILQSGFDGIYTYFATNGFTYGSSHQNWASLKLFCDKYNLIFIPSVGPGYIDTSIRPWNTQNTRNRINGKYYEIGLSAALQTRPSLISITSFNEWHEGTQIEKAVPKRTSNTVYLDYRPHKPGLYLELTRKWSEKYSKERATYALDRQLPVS
UniProt Q9NQG1: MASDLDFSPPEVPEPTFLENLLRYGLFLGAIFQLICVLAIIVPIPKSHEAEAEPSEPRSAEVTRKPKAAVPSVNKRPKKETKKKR
UniProt Q12851: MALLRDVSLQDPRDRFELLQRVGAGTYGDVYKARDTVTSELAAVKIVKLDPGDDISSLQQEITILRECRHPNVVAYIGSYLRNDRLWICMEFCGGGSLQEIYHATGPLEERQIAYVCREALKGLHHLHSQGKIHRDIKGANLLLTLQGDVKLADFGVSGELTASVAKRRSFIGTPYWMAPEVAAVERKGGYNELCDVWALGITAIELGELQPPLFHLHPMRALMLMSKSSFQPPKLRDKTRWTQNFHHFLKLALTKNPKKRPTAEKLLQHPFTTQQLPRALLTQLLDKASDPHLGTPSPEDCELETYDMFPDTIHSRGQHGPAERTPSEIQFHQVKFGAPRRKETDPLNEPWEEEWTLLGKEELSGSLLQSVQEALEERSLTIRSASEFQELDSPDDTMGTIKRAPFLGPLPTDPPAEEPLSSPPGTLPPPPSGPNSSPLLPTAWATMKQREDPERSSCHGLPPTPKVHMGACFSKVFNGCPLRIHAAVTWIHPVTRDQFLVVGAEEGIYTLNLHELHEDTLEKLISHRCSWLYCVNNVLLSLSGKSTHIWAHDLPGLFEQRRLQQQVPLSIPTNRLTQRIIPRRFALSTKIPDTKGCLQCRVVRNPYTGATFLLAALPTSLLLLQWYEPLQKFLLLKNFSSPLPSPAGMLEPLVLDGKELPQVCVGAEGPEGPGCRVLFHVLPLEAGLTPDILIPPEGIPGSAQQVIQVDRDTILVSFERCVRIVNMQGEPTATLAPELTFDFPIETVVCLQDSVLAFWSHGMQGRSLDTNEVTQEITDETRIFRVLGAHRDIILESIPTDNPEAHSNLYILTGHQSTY
UniProt Q5TCQ9: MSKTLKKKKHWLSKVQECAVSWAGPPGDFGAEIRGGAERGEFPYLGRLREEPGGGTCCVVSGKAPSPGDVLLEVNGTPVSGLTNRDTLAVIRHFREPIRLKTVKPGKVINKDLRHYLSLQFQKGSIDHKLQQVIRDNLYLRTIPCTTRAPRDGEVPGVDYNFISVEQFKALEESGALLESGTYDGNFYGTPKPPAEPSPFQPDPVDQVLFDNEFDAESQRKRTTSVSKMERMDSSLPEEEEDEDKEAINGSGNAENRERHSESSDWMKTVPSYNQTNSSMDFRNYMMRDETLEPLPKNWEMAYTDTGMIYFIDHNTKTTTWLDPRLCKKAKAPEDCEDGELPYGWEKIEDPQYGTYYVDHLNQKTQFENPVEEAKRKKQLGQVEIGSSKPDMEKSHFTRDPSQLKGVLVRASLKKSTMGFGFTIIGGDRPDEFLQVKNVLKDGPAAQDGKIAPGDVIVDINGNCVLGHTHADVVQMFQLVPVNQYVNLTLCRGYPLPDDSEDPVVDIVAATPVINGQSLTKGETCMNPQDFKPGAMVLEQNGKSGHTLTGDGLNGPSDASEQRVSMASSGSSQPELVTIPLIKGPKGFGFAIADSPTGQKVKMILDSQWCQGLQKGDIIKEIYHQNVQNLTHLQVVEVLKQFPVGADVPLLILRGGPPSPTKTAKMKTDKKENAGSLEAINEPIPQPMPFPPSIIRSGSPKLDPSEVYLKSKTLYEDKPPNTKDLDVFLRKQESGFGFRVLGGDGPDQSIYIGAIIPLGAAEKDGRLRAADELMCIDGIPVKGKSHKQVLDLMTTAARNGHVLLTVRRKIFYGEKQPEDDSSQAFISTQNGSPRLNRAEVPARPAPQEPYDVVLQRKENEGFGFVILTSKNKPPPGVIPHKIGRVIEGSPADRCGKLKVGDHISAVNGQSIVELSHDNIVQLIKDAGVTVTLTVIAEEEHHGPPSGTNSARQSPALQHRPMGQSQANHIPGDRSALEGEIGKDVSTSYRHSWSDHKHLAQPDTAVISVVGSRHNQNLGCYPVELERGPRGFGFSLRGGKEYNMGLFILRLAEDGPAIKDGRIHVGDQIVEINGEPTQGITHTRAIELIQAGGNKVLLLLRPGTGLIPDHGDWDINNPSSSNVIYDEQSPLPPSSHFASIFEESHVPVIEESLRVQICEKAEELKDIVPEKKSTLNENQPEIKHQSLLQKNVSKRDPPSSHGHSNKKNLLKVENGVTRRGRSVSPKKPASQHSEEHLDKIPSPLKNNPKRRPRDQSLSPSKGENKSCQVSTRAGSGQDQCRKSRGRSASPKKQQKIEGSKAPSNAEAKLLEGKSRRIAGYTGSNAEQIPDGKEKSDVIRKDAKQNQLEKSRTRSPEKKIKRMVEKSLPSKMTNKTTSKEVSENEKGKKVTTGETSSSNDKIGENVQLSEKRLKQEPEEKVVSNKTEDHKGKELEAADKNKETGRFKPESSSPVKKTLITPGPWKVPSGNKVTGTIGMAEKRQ
UniProt P27816: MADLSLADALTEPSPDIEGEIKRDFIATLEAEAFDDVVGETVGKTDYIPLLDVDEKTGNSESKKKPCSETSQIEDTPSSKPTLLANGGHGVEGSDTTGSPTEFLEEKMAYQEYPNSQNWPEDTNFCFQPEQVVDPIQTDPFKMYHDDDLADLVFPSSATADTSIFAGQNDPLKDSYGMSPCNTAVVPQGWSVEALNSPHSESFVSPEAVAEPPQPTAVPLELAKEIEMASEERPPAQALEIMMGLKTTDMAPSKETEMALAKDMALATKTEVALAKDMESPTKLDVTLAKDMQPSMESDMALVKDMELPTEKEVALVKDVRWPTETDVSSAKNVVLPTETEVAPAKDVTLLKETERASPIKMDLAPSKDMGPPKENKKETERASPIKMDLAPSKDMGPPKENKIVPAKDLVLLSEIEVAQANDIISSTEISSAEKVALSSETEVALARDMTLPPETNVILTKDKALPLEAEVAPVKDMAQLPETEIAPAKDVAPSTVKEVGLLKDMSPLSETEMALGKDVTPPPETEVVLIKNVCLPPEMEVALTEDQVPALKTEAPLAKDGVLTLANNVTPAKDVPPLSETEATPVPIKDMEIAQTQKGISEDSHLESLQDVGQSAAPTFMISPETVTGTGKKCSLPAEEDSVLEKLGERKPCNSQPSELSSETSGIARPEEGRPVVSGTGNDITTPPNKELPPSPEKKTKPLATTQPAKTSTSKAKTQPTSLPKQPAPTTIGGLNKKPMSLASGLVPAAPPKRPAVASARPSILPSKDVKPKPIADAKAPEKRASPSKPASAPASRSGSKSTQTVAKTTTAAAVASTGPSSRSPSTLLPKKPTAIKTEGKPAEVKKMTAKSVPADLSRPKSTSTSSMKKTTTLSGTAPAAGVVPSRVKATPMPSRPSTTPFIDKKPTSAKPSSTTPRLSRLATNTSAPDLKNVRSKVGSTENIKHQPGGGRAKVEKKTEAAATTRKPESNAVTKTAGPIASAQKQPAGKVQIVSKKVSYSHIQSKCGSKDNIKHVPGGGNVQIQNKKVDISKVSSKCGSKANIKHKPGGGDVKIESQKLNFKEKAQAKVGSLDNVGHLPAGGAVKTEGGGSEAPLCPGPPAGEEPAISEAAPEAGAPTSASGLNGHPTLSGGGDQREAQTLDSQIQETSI

The list shows a part of the results.

Compound in one assay: CC(C)(C)Cn1c(N)nc2ccc(-c3[nH]c(C(C)(C)C)nc3-c3ccc(F)cc3)nc21 [ralimetinib]
The assay can be described thus: log2 fold change, soluble protein after heating vs DMSO (PISA); higher = thermal stabilisation; K562 lysate, 10 uM; active = over 0.2 and 3.5 SD of the protein, either way, in both replicates (recomputed). In a few lines: (§1)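 Quantification was by TMTpro 16plex LC-MS/MS with equalised channel sums, applied to the supernatant after 21,000xg for 90 min. Samples were crude K562 extract at 1 mg/mL protein in PBS pH 7.4 with 1 mM MgCl2, treated with 10 μM compound for 30 min, heated for 3 min across 48°C-58°C, pooled and brought to 0.5% NP-40 at 4°C. Values are log-two fold changes in thermal stability relative to solvent controls, from duplicates.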
For MAP4K4 isoform 6 (UniProt O95819), the log2 fold change was inactive: -0.19.

Take MAP7D3 (UniProt Q8IWC1): the log2 fold change was inactive: 0.023.

As for MAFG (UniProt O15525), the log2 fold change was inactive: -0.03.

Consider MAPK11 (UniProt Q15759), for which the log2 fold change was inactive: 0.521.

In the case of MAGED1 isoform 2 (UniProt Q9Y5V3), the log2 fold change was inactive: 0.018.

In the case of LZTFL1 (UniProt Q9NQ48), the log2 fold change is inactive: 0.028.

Take M6PR (UniProt P20645): the log2 fold change is inactive: 0.006.

As for MAD2L1 (UniProt Q13257), the log2 fold change is inactive: 0.035.

Compound in another assay: CC(C)(O)CC(=O)NCCn1ccc2ncnc(Nc3ccc(Oc4cccc(C(F)(F)F)c4)c(Cl)c3)c21
The description is as above. In a few lines: as §1
Consider LUC7L3 (UniProt O95232), for which the log2 fold change was inactive: -0.002.

MAP3K5 (UniProt Q99683): the log2 fold change was inactive: -0.236.

Turning to MACF1, A0A0A6YYJ5, the log2 fold change is inactive: -0.041.

Regarding MAP4K3 (UniProt Q8IVH8), the log2 fold change was inactive: 0.062.

On to LTO1 (UniProt Q8WV07), for which the log2 fold change was inactive: -0.006.

As for MANEA (UniProt Q5SRI9), the log2 fold change was inactive: -0.1.

MAPRE3 isoform 2 (UniProt Q9UPY8): the log2 fold change was inactive: 0.025.

As to LTBP4 (UniProt Q8N2S1), the log2 fold change is inactive: -0.095.

As for MANBAL (UniProt Q9NQG1), the log2 fold change was inactive: -0.001.

As to MAP4K2 (UniProt Q12851), the log2 fold change was inactive: 0.108.

For the target MAST2 (UniProt Q6P0Q8), the log2 fold change is inactive: -0.084.

On to MAGI3 isoform 1 (UniProt Q5TCQ9), for which the log2 fold change was inactive: 0.105.

For MAML1 (UniProt Q92585), the log2 fold change was inactive: -0.014.

For MAP4 isoform 5 (UniProt P27816), the log2 fold change is inactive: -0.166.

MAP4K5 (UniProt Q9Y4K4): the log2 fold change is inactive: 0.002.

Regarding MAPK12 (UniProt P53778), the log2 fold change was inactive: -0.029.

Turning to MARF1 (UniProt Q9Y4F3), the log2 fold change was inactive: -0.042.

Regarding MAN2B2 (UniProt Q9Y2E5), the log2 fold change is inactive: 0.083.

As to MAP4 (UniProt E7EVA0), the log2 fold change is inactive: -0.185.

With MAP4K4 isoform 6 (UniProt O95819), the log2 fold change was inactive: 0.027.

In the case of MAP7D3 (UniProt Q8IWC1), the log2 fold change was inactive: -0.019.

On to MAFG (UniProt O15525), for which the log2 fold change is inactive: 0.017.

As to MAPK11 (UniProt Q15759), the log2 fold change is inactive: 0.007.

With MAGED1 isoform 2 (UniProt Q9Y5V3), the log2 fold change was inactive: -0.005.

For LZTFL1 (UniProt Q9NQ48), the log2 fold change is inactive: 0.019.

Regarding M6PR (UniProt P20645), the log2 fold change was inactive: 0.026.

Consider MAD2L1 (UniProt Q13257), for which the log2 fold change was inactive: 0.001.
